Measured values taken from US20030212051A1, “Bile acid containing prodrugs with enhanced bioavailabilty” (priority 2003, published 2003).
“Also recorded” adds a separate entry of the source.

Biological target: T1, human intestinal bile acid transporter (hIBAT) (Homo sapiens, UniProt Q12908)
T1 construct: expressed in transfected cells; host or cells: COS-7 cells, transient transfection with pCMV5-hIBAT (LipofectAMINE 2000)
T1 sequence (Q12908 1-348): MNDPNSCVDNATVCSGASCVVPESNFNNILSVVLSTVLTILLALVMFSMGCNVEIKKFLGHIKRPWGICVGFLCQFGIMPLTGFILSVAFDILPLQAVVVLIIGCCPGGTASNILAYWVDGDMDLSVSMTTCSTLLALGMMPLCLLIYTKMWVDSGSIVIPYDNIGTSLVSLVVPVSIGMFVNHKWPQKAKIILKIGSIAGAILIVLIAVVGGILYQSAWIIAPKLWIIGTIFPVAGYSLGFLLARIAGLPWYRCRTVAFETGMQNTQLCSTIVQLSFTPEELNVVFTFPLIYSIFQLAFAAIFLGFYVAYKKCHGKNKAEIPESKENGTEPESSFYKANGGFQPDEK
Test: Competitive inhibition of 3H-taurocholate uptake in COS-hIBAT cells
Type: cell-based
Conditions: 0.25 μM 3H-taurocholate, valacyclovir 10 to 600 μM, atenolol 10 to 200 μM, glycine and taurine 50 to 200 μM, bile acids 1 to 100 μM
Procedure: Cell dilutions are streaked on nutrient agar plates containing 50 μg/ml ampicillin, and incubated at 37° C. overnight. Isolated colonies are selected aseptically, and are used to inoculate a 200 ml nutrient broth culture containing 50 μg/ml ampicillin. […] After an isopropanol precipitation and ethanol wash, the DNA is reconstituted in 600 μl of sterile deionized water. […] Cells are transfected at 24 hours post seeding. For each well transfected, 0.8 μg hIBAT cDNA is combined with LipofectAMINE 2000 reagent and incubated at room temperature for 20 minutes to allow complexes to form. A volume of 100 μl of hIBAT-lipid complex is added to each well of cells.
Uptake studies are performed on COS-hIBAT cells at 24 hours post-transfection. […] Because bile acid transport is sodium dependent, this MHBSS approach allows for the simple modification of the uptake buffer to exclude all sources of sodium, and thus enables for a control uptake assay under sodium-free conditions.
Incubation conditions and analysis are performed as described for the Km and Vmax studies. The following equation (Formula 2) is used to estimate the Ki for a series of naturally occurring bile acids: [formula]
Inhibition studies are performed in triplicate.

Q: `CC(C)NCC(O)COc1ccc(CC(N)=O)cc1` (stereo not shown) [atenolol] was tested. Which “inhibition of 3H-taurocholate uptake / interaction with hIBAT (in words)” value did it give?
A: do not inhibit; also recorded: does not interact
